About 17,000 (5.5%) of roughly 310,000 compounds were called active. The inconclusive results got no clear call from the source; some entries with a clear call stand among them for comparison. The call rests on the fitted dose curve; in most records, active means well fitted inhibition curve with a large enough effect; inconclusive means small, poorly fitted or top-dose-only effect, or effect the other way; inactive means no such curve, though single readings can be large or run the other way. Potencies of inconclusive entries are doubtful fits and often do not repeat.
The molecules below were run against Nuclear receptor ROR-gamma (Mus musculus) (UniProt P51450) (assay: qHTS for inhibitors of ROR gamma transcriptional activity). Conditions: Drosophila S2 Gal4-RORgamma UAS-luciferase reporter, 20 h; activity change, negative = inhibition: at 53.6 µM (top of the series).
Method in brief: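 In this cell-based reporter format, copper sulfate (700 uM final) drives Gal4–ROR gamma fusion expression from a metallothionein promoter in Drosophila Schneider cells; compounds preincubated 1 hr, reporter read after 20 hr at ambient temperature.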
Further: nearly all actives have a fitted effect of over 60% in size.
On the % scale 0 is the no-effect control and ±100 the full control effect; potency means the concentration at half of the fitted maximal effect.

The chains behind the UniProt entries cited, without tags or fusion partners. Where a name states a change or a piece, a line headed by the entry shows the natural chain unless it says otherwise.
UniProt P51450: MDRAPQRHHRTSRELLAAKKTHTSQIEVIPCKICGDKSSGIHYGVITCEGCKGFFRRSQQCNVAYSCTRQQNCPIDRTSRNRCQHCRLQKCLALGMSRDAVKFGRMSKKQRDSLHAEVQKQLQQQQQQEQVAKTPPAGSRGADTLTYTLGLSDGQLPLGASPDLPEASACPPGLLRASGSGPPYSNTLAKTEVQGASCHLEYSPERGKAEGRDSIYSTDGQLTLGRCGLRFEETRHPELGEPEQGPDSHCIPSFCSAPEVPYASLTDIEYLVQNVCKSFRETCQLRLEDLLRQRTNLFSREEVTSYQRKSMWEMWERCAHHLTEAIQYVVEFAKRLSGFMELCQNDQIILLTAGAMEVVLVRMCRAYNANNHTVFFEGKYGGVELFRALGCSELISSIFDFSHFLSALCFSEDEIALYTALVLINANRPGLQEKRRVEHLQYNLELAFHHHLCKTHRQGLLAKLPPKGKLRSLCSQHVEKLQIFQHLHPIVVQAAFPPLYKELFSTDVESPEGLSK

Row | SMILES | Potency | activity change, negative = inhibition
1 | COc1ccc2c(c1)nc(SCC(=O)c1ccc(Br)s1)n2C | inconclusive: 17.8 µM [inhibitor, single point] | 
2 | CCc1ccc(C2C(C#N)=C(N)C(C#N)(C#N)C3=CCC(C(C)(C)C)CC32)cc1 (configuration not stated) | inconclusive: 3.16 µM [inhibitor, single point] | 
3 | O=C(NNC(=O)c1c(F)cccc1F)c1sccc1-n1cccc1 |  | inactive: -35.1%
4 | COc1ccc(NC(=O)CCCc2c[nH]c3ccccc23)cc1OC | inconclusive: 11.2 µM [activator, single point] | 
5 | COc1ccccc1C(C[N+](=O)[O-])c1c(N)n(C)c(=O)n(C)c1=O (configuration not stated) | inconclusive: 5.62 µM [inhibitor, partial curve, poor fit] | 
6 | Fc1cccc2sc(N3CCCCC3)nc12 | inconclusive: 6.31 µM [activator, full curve] | 
7 | CCOC(=O)c1sc(/N=C/c2c(O)ccc3ccccc23)cc1C | inconclusive: 2.51 µM [inhibitor, partial curve] | 
8 | CCCCC(=O)NC(c1ccc(N(CC)CC)cc1)c1ccc2cccnc2c1O (configuration not stated) | active: 2.24 µM | 
9 | CCn1nc(C(=O)OCc2c(C)noc2C)c2ccccc2c1=O | inconclusive: 14.1 µM [activator, single point] | 
10 | O=S(=O)(NC1CC1)c1ccc(S(=O)(=O)N2CCCc3ccccc32)cc1 | inconclusive: 5.62 µM [activator, single point] | 
11 | C=Cn1ccnc1P(=S)(c1ccc2c(c1)c1ccccc1n2CC)c1nccn1C=C | inconclusive: 0.631 µM [inhibitor, single point] | 
12 | COc1ccc(OCCNS(=O)(=O)c2cccc([N+](=O)[O-])c2)cc1 | inconclusive: 22.4 µM [activator, single point] | 
13 | COc1ccc2[nH]cc(CCNc3ncncc3-c3ccccc3C(F)(F)F)c2c1 | inconclusive: 15.8 µM [activator, single point] | 
14 | CCOc1ccc(-c2cc(C(=O)NN=C3CCN(C)CC3)[nH]n2)cc1 | inconclusive: 17.8 µM [inhibitor, single point] | 
15 | CCOC(=O)c1c(NC(=O)CSc2ncccn2)sc2c1CCN(Cc1ccccc1)C2 | inconclusive: 10 µM [activator, partial curve] | 
16 | Cn1c(N)c(C(=O)COC(=O)c2cc(C(F)(F)F)nc3ccccc23)c(=O)n(C)c1=O | inconclusive: 3.16 µM [activator, single point] | 
17 | CCOC(=O)c1c(C)[nH]c(C)c1C(=O)CSc1nnc(-c2ccc(OC(F)F)cc2)o1 | inconclusive: 14.1 µM [inhibitor, single point] | 

Complete entries as entered above:
`CCOC(=O)c1c(NC(=O)CSc2ncccn2)sc2c1CCN(Cc1ccccc1)C2` is listed as Potency: inconclusive: 10 µM [activator, partial curve]
`CCc1ccc(C2C(C#N)=C(N)C(C#N)(C#N)C3=CCC(C(C)(C)C)CC32)cc1` (configuration not stated) is listed as Potency: inconclusive: 3.16 µM [inhibitor, single point]

Reference: PubChem BioAssay AID2551 (National Center for Advancing Translational Sciences (NCATS), 2010)
